Experimental findings from PubChem BioAssay AID256 (DTP/NCI, 2004) are described below.

The list does not hold the whole screen: it gathers tests that were run many times, whatever their T/C, doses with no T/C, and many T/C values between a quarter and a half above the control. Other doses and runs of a compound stand elsewhere. T/C: endpoint of the treated group in % of that of the vehicle group. Some entries give survivors of the animals treated and no T/C: the source files T/C as zero there, which appears to mark a toxic dose or a test without result, not a measured value. Some survivor counts are full or nearly so, which does not show that the dose was tolerated: survival well below the control is almost never listed, so the zero probably covers shortened survival too. Survivors were counted at the toxicity check, usually on the fifth day, unless a day is given; later deaths do not show. Schedules are NCI's codes, read here as Q, the interval in days (D) or hours (H), X, the number of doses. Some entries were tested several times; the values are given in rising order. Where survival is the endpoint, the PubChem record calls one and a half times the control and up active, and a quarter to a half above the control has no call in these data; cut-offs in other NCI protocols can differ.

This test concerns CD2F1 mice, L1210 leukemia ip, survival T/C. Briefly: NCI In Vivo Anticancer Drug Screen. Data for tumor model L1210 Leukemia (intraperitoneal) in CD2F1 (CDF1) mice. To be noted: higher T/C = longer survival. An outline of the steps: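 Tumor-bearing mice (transplanted tumor) were split into treated and vehicle control groups, and the measured endpoint of each treated group was divided by that of its vehicle controls.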

The mark [1] stands for this setting: T/C endpoint: mean survival time, dose: 400.0 mg/kg/injection, schedule: Q04DX003 (ip), vehicle: saline with Tween-80.
Setting [2] is: T/C endpoint: mean survival time, dose: 100.0 mg/kg/injection, schedule: Q04DX003 (ip), vehicle: saline with Tween-80.
The mark [3] stands for this setting: T/C endpoint: mean survival time, dose: 200.0 mg/kg/injection, schedule: Q04DX003 (ip), vehicle: saline with Tween-80.
Setting [4] is: T/C endpoint: mean survival time, dose: 400.0 mg/kg/injection, schedule: Q01DX009 (ip), vehicle: saline with Tween-80.
[5] abbreviates: T/C endpoint: mean survival time, dose: 100.0 mg/kg/injection, schedule: Q01DX009 (ip), vehicle: saline with Tween-80.
Where [6] appears, read: T/C endpoint: mean survival time, dose: 300.0 mg/kg/injection, schedule: Q01DX001 (ip), vehicle: saline.
[7] abbreviates: T/C endpoint: mean survival time, dose: 200.0 mg/kg/injection, schedule: Q01DX001 (ip), vehicle: saline.
Setting [8] is: T/C endpoint: mean survival time, dose: 400.0 mg/kg/injection, schedule: Q01DX001 (ip), vehicle: saline.

As for `CCOC(=O)CC(COC)C(Br)(C(=O)OCC)C(=O)OCC` (stereo unspecified), the survivor count (T/C endpoint: mean survival time, dose: 25.0 mg/kg/injection, schedule: Q01DX009 (ip), vehicle: Klucel (hydroxypropylcellulose) (HPC)) is given as 6 of 6; the survivor count (T/C endpoint: mean survival time, dose: 50.0 mg/kg/injection, schedule: Q01DX009 (ip), vehicle: Klucel (hydroxypropylcellulose) (HPC)) is on record as 6 of 6; the survivor count (T/C endpoint: mean survival time, dose: 100.0 mg/kg/injection, schedule: Q01DX009 (ip), vehicle: Klucel (hydroxypropylcellulose) (HPC)) was 4 of 6; the survivor count (T/C endpoint: mean survival time, dose: 200.0 mg/kg/injection, schedule: Q01DX009 (ip), vehicle: Klucel (hydroxypropylcellulose) (HPC)) is given as 2 of 6; the survivor count (T/C endpoint: mean survival time, dose: 400.0 mg/kg/injection, schedule: Q01DX009 (ip), vehicle: Klucel (hydroxypropylcellulose) (HPC)) is 2 of 6.
Regarding `COc1cc(Br)c(CCNC(=O)Cc2cc(OC)c(OC)cc2Br)cc1OC`, the survivor count under setting [1] was 6 of 6.
On to `CC(C[P+](c1ccccc1)(c1ccccc1)c1ccccc1)C(O)(C(=O)c1ccccc1)c1ccccc1` (stereo unspecified), for which the survivor count (T/C endpoint: mean survival time, dose: 25.0 mg/kg/injection, schedule: Q01DX009 (ip), vehicle: saline with Tween-80) was 5 of 6.
For the compound `c1ccc(C[N+]23CCC(CC2)CC3)cc1`, the survivor count (T/C endpoint: mean survival time, dose: 25.0 mg/kg/injection, schedule: Q04DX003 (ip), vehicle: saline) is recorded as 6 of 6.
As for `O=C1CC(=O)NC(=S)N1`, the survivor count (T/C endpoint: mean survival time, dose: 400.0 mg/kg/injection, schedule: Q01DX009 (ip), vehicle: saline) was 0 of 6.
Take `CCOCCN1CCN(CCCN2c3ccccc3Sc3ccc(C(F)(F)F)cc32)CC1`: the T/C (T/C endpoint: mean survival time, dose: 50.0 mg/kg/injection, schedule: Q04DX003 (ip), vehicle: saline) is 132 % of control. The survivor count (T/C endpoint: mean survival time, dose: 75.0 mg/kg/injection, schedule: Q04DX003 (ip), vehicle: saline) is 2 of 6.
Regarding `CC[n+]1ccc(Nc2ccc(NC(=O)c3ccc(Nc4cc[n+](CC)c5ccc(N)cc45)cc3)cc2)cc1`, the T/C (T/C endpoint: mean survival time, dose: 0.5 mg/kg/injection, schedule: Q01DX009 (ip), vehicle: saline) is 128 % of control. In addition, for the setting “T/C endpoint: mean survival time, dose: 8.0 mg/kg/injection, schedule: Q01DX009 (ip), vehicle: water”, the survivor count is given as 5 of 10.
As to `O=[N+]([O-])c1ccc(N/N=C/CCl)c([N+](=O)[O-])c1`, the survivor count is listed as 1 of 6 under setting [2], 0 of 6 under setting [3] and 0 of 6 under setting [1].
On to `CN(C=O)NC(=O)N(CCCl)N=O`, for which the survivor count reads like this: (T/C endpoint: median survival time, dose: 50.0 mg/kg/injection, schedule: Q01DX001 (ip), vehicle: saline) 6 of 6; (T/C endpoint: median survival time, dose: 100.0 mg/kg/injection, schedule: Q01DX001 (ip), vehicle: saline) 1 of 6 and 3 of 6.
Consider `O=c1cc[nH]c2cc(Cl)ccc12`, for which, under “T/C endpoint: mean survival time, dose: 400.0 mg/kg/injection, schedule: Q04DX003 (ip), vehicle: alcohol”, the survivor count is given as 1 of 6.
`C1=C(c2ccccc2)NN=C(c2ccccc2)C1c1ccccc1` (stereo unspecified): the survivor count by setting is: (T/C endpoint: mean survival time, dose: 12.5 mg/kg/injection, schedule: Q01DX001 (ip), vehicle: saline with Tween-80) 6 of 6; (T/C endpoint: mean survival time, dose: 25.0 mg/kg/injection, schedule: Q01DX001 (ip), vehicle: saline with Tween-80) 6 of 6.
Turning to `Clc1ccc(CN2COc3c(ccc4cccnc34)C2)cc1Cl`, the survivor count under setting [4] is recorded as 0 of 6.
On the same count and under the same terms, the same measure for `COc1ccc(OC)c(C(=O)CCl)c1`: 5 of 6.
As to `O=[N+]([O-])c1ccc2c(ccn2C2OCC(O)C(O)C2O)c1` (stereo unspecified), for the setting “T/C endpoint: mean survival time, dose: 550.0 mg/kg/injection, schedule: Q01DX009 (ip), vehicle: saline with Tween-80”, the survivor count was 1 of 3.
For `O=P(OCc1ccccc1)(N(CCCl)CCCl)N1CCCCC1` (stereo unspecified), where the note is “T/C endpoint: mean survival time, dose: 500.0 mg/kg/injection, schedule: Q01DX010 (ip), vehicle: saline”, the survivor count is on record as 0 of 6.
Consider `CC(=O)CC(=O)Nc1ccc(N=Nc2ccccc2)cc1`, for which the survivor count under setting [4] is given as 1 of 6.
Regarding `BrC1(Br)C2CCCCCCC21` (stereo unspecified), the survivor count under setting [4] was 0 of 6.
`CSC(=S)N/N=C/c1ccccc1O`: the survivor count is on record as 5 of 6 (T/C endpoint: mean survival time, dose: 50.0 mg/kg/injection, schedule: Q01DX009 (ip), vehicle: saline with Tween-80); 4 of 6 under setting [2]; 0 of 6 under setting [3]; 0 of 6 under setting [1].
`CCOS(=O)(=O)c1ccc(Cl)c([N+](=O)[O-])c1`: the survivor count is 3 of 6 under setting [5]; 1 of 6 (T/C endpoint: mean survival time, dose: 200.0 mg/kg/injection, schedule: Q01DX009 (ip), vehicle: saline with Tween-80); 4 of 6 under setting [3]; 3 of 6 under setting [1].
Take `N#CN=C([S-])[S-].N#CN=C([S-])[S-].[Cu]`: the survivor count was 3 of 6 (T/C endpoint: mean survival time, dose: 35.0 mg/kg/injection, schedule: Q01DX009 (ip), vehicle: saline); 1 of 6 (T/C endpoint: mean survival time, dose: 50.0 mg/kg/injection, schedule: Q04DX003 (ip), vehicle: acetone); 0 of 6 (T/C endpoint: mean survival time, dose: 55.0 mg/kg/injection, schedule: Q01DX009 (ip), vehicle: saline); 0 of 6 (T/C endpoint: mean survival time, dose: 80.0 mg/kg/injection, schedule: Q01DX009 (ip), vehicle: saline).
In the case of `CCc1cccc(CC)c1NC(N)=S`, the survivor count (T/C endpoint: mean survival time, dose: 200.0 mg/kg/injection, schedule: Q04DX002 (ip), vehicle: saline with Tween-80) is on record as 0 of 3.
Turning to `NC(N)=NC(N)=Nc1cnccn1`, the survivor count under setting [6] is given as 0 of 6.
Turning to `CN(CCC(=O)N(C)CCC1CCCCC1)CCC1CCCCC1`, the survivor count is listed as 1 of 6 (T/C endpoint: mean survival time, dose: 150.0 mg/kg/injection, schedule: Q01DX001 (ip), vehicle: saline) and 0 of 6 under setting [6].
Regarding `O=C1CN(c2ccc3ccccc3c2)NO1`, under setting [1], the survivor count is reported as 0 of 3.
Turning to `OC1(c2cccc(C(F)(F)F)c2)CCN(C2CC2c2ccccc2)CC1` (stereo unspecified), the survivor count (T/C endpoint: mean survival time, dose: 400.0 mg/kg/injection, schedule: Q04DX002 (ip), vehicle: saline with Tween-80) is given as 1 of 3.
For `CCCCCCCCCCCCOCC[N+](CCO)(CCO)Cc1ccccc1`, the survivor count is on record as 1 of 6 (T/C endpoint: mean survival time, dose: 5.0 mg/kg/injection, schedule: Q01DX009 (ip), vehicle: saline); 0 of 6 (T/C endpoint: mean survival time, dose: 10.0 mg/kg/injection, schedule: Q01DX009 (ip), vehicle: saline); 0 of 6 (T/C endpoint: mean survival time, dose: 20.0 mg/kg/injection, schedule: Q01DX009 (ip), vehicle: saline); 0 of 6 under setting [2]; 0 of 6 under setting [3]; 0 of 6 under setting [1].
As for `NC(N)=N/N=C/c1c(O)ccc2ccccc12`, the survivor count (T/C endpoint: mean survival time, dose: 250.0 mg/kg/injection, schedule: Q01DX010 (oral), vehicle: saline) is reported as 2 of 6.
For the compound `O=S1(=O)CCC2C1C1(Cl)C(Cl)=C(Cl)C2(Cl)C1(Cl)Cl` (stereo unspecified), the survivor count (T/C endpoint: mean survival time, dose: 50.0 mg/kg/injection, schedule: Q01DX009 (ip), vehicle: saline sonified) is recorded as 5 of 6.
For the compound `CC1(C)C2C3C=CC(C3)C2S1(=O)=O` (stereo unspecified), the survivor count (T/C endpoint: mean survival time, dose: 10.0 mg/kg/injection, schedule: Q01DX001 (ip), vehicle: saline) is 3 of 6; the survivor count (T/C endpoint: mean survival time, dose: 100.0 mg/kg/injection, schedule: Q01DX001 (ip), vehicle: saline) is 0 of 6; the survivor count under setting [7] is 0 of 6; the survivor count under setting [8] was 0 of 6.
As for `N#CCCCN1CCCCCC1`, the survivor count under setting [3] was 0 of 6 and the survivor count under setting [1] was 0 of 6.
In the case of `CCOC(=O)CCC(NC(=O)c1cc(Cl)c(N(CC)Cc2cnc3nc(N)nc(N)c3n2)c(Cl)c1)C(=O)OCC` (stereo unspecified), the T/C (T/C endpoint: mean survival time, dose: 6.25 mg/kg/injection, schedule: Q01DX009 (ip), vehicle: Klucel (hydroxypropylcellulose) (HPC)) is 135 % of control and the T/C (T/C endpoint: mean survival time, dose: 12.5 mg/kg/injection, schedule: Q01DX009 (ip), vehicle: Klucel (hydroxypropylcellulose) (HPC)) was 147 % of control.
On to `Cc1nc2ccccc2cc1C[N+]12CN3CN(CN(C3)C1)C2`, for which the survivor count is, setting by setting: under setting [5], 4 of 6; under setting [2], 1 of 6; under setting [7], 0 of 6; under setting [8], 0 of 6.
As to `CCc1cc(O)cc(C)c1Cl`, the survivor count under setting [4] is on record as 1 of 6.
